The source of these data is publication PMC3674269.

Sequences of proteins named here, by UniProt entry; tags and fusion partners are left off. A change or cut given only in a name is not applied to a line headed by its entry.
UniProt P22002: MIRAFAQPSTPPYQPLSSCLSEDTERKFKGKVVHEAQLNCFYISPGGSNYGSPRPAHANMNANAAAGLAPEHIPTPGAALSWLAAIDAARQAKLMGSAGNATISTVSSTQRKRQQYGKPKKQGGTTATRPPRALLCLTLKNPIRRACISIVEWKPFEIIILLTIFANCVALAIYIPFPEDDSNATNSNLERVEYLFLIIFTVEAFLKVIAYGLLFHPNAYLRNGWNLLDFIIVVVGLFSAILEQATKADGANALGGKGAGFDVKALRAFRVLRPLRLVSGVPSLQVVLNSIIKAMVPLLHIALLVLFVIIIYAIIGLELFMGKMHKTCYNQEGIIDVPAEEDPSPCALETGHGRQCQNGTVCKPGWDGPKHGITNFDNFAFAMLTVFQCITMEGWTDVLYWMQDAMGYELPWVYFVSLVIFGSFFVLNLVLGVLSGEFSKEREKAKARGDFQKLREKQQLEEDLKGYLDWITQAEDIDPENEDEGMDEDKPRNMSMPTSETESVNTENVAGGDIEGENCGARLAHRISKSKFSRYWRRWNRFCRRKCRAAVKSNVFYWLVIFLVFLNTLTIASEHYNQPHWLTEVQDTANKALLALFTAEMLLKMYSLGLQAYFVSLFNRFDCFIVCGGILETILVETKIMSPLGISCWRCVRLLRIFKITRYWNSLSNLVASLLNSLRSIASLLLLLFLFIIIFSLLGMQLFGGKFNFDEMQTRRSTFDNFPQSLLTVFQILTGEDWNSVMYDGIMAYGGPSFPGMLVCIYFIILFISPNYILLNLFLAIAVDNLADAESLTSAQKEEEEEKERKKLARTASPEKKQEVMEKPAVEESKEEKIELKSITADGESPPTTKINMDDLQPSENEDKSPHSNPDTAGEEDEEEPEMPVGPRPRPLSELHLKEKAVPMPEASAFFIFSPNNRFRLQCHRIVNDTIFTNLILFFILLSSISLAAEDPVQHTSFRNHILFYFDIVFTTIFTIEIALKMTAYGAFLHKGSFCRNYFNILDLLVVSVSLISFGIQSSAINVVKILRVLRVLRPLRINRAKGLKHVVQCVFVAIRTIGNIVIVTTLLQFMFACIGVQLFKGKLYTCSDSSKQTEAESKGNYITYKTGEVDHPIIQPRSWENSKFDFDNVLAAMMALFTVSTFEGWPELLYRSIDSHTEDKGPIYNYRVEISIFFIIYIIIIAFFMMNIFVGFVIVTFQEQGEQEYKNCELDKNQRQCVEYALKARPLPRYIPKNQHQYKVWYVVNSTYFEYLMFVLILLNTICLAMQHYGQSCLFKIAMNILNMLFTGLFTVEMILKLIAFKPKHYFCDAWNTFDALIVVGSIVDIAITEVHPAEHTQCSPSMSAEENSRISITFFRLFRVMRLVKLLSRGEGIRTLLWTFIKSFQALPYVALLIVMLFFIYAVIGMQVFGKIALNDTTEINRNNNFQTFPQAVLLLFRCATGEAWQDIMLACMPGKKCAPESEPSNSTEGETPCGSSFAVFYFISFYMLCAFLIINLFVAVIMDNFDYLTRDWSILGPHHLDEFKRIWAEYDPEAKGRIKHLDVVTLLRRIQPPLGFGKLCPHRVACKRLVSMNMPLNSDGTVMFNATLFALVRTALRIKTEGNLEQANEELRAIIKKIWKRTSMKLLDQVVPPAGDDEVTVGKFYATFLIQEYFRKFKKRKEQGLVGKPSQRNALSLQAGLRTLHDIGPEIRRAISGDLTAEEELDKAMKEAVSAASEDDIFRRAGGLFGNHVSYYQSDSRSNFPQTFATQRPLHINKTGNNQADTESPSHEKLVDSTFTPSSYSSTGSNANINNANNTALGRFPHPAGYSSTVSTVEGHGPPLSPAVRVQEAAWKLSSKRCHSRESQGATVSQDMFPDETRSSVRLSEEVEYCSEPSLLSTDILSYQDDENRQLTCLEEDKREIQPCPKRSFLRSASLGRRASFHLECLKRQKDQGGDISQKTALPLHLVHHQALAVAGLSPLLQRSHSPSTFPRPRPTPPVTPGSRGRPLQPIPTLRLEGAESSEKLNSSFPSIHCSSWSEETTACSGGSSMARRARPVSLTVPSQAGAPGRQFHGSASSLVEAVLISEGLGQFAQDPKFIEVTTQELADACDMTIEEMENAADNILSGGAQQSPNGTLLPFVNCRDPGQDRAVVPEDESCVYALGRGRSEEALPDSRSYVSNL
UniProt F1NZP5: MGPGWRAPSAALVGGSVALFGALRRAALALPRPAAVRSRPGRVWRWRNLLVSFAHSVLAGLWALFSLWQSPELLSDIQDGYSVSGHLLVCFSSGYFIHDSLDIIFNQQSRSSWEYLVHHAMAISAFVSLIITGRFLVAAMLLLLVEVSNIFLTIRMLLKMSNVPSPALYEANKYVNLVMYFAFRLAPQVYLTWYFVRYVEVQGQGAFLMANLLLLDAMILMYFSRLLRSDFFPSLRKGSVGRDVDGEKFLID

These are yes or no findings as the source states them, for the method shown. In cells and extracts the contact can be indirect. A result given as binding can be weak or reduced; the word gives no strength.

This assay addresses L-type calcium channel CaV1.2 α1 subunit (UniProt P22002). In words: co-IP; HEK293 cells transfected with CaV1.2 α1, β2a-GFP, α2δ subunits, TAG and C3-myc; lysed in Hepes lysis buffer (20 mM Hepes, 137 mM NaCl, 1% Triton X-100, 10% glycerol, 1.5 mM MgCl2, 1 mM EGTA); precipitated with anti-CaV1.2 and protein A beads for 3 h, detected with anti-myc; pcDNA3 as control.

Take Calfacilitin-myc1 (from UniProt F1NZP5): the binding entry is given as “binds”.
Under Calfacilitin-myc7 (from UniProt F1NZP5) stands “binds”.
